Results on two sequences are retold here after publication PMC12816671.

Sequences of proteins named here, by UniProt entry; tags and fusion partners are left off. Residues count along the entry.
UniProt P12956, 539-609 K596A: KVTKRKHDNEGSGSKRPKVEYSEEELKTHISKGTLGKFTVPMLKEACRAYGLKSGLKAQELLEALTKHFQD

The data set addresses Ku70 SAP domain K596A (Homo sapiens) (UniProt P12956). The data set is described as follows: EMSA. The settings on record: SAP EMSA: 105 mM KCl (400 bp) or 46 mM KCl (153 bp), 3 mM Tris-HCl pH 7.5, 0.1 mM EDTA, 3-4% glycerol, 15 min room temp, agarose (0.8% or 1.5%), recombinant protein, residues 539-609.

The comparison behind a weaker result is the experiment's own reference, which may not be listed here. Construct, isoform or probe ends are uncertain for at least one entry.

As to “ACTTGACTCATGATTTCTTACCTATTAGTGGTTGAACAGCATCGGACTCAGATAGTAATCCACGCTCTTTTAAAATGTCAACAAGAGAATCTCTACCATGAACAAAATGTGACTCATATCTAAACCAGTCCTTGACGAACGTGCCAAGCATATTAAGCCACTTCTCCTCATCCAACGCGTCAGTTTTTGACAGAATCGTTAGTTGATGGCGAAAGGTCGCAAAGTAAGAGCTTCTCGAGCTGCGCAAGGATAGGTCGAATTTTCTCATTTTCCGCCAGCAGTCCACTTCGATTTAATTCGTAAACAAGCAGTAGTAATTCCTGCTTTATCAAGATAATTTTTCGACTCATCAGAAATATCCGAAAGTGTTAACTTCTGCGTCATGGAAGCGATAAAACTC (double strand) [400 bp PhiX174 fragment]”, under “105 mM KCl, probe letters rebuilt from the primers and the genome”, the binding result is given as “binds more weakly”.

“ATCCTGGAGAATCCCGGTGCCGAGGCCGCTCAATTGGTCGTAGACAGCTCTAGCACCGCTTAAACGCACGTACGCGCTGTCCCCCGCGTTTTAACCGCCAAGGGGATTACTCCCTAGTCTCCAGGCACGTGTCAGATATATACATCCTGTGAT (double strand) [153 bp free DNA]”: for the setting “46 mM KCl”, the binding result is “binds more weakly”.
